# Test results reported in doi:10.1101/355438.
# Amino acid sequences for entries named in this document (tags omitted). A change or cut given only in a name is not applied to a line headed by its entry. Residues count along the entry.
# UniProt A0A0B7P9G0, 21-834: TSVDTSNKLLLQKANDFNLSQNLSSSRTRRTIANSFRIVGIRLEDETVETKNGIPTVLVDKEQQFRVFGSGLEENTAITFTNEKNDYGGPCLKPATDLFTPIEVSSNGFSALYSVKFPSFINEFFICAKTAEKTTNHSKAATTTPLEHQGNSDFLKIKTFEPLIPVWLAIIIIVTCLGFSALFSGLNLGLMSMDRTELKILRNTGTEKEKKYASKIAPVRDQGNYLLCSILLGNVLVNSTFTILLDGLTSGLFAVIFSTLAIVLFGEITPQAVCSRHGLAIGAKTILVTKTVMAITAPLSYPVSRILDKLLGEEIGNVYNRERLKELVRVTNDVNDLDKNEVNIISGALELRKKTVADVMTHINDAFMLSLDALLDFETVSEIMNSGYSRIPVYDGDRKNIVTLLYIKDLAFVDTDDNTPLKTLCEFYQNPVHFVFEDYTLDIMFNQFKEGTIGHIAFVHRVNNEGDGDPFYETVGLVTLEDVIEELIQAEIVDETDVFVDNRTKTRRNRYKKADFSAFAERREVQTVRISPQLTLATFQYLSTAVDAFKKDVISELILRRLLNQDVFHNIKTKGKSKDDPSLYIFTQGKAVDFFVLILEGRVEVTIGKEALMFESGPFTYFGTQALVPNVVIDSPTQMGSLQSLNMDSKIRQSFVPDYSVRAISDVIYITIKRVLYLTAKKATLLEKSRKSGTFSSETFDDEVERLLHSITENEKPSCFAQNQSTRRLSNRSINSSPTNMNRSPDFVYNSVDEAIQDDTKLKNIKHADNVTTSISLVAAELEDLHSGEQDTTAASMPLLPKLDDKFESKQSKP
# Positions count from the first letter of the chain named. No constants are given. Whether binding was seen depends on the method and setting. In cells and extracts the contact can be indirect. Some binding calls cover weakened binding; strength is not graded here. Sequences can lack the tags named with a protein.
# Experiments:
# [1] = biological target: T1, HA-Prl-1 (wild type), Drosophila phosphatase of regenerating liver-1 (Drosophila) (UniProt O61722); assay: co-IP
# T1 sequence: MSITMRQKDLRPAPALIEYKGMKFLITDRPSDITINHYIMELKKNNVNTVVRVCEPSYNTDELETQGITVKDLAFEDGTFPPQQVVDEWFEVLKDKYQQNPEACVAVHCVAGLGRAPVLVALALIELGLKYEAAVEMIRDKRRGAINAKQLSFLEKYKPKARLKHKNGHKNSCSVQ
# [2] = biological target: T2, GST-tagged Prl-1-D77A/C109S (Drosophila) (UniProt O61722); assay: pull-down
# T2 sequence: T1 sequence with D77A, C109S
# [3] = biological target: T3, GST-tagged Prl-1 (wild type) (Drosophila) (UniProt O61722); assay: pull-down
# T3 sequence: T1 sequence
# [4] = biological target: T4, GST-tagged Prl-1-C109S (Drosophila) (UniProt O61722); assay: pull-down
# T4 sequence: T1 sequence with C109S
binding [1],binding [2],binding [3],binding [4],Substance
binds,–,–,–,"Uex (endogenous, S2 cells) (from UniProt A0A0B7P9G0 21-834)"
–,binds,binds,binds,"Uex (endogenous, adult flies) (from UniProt A0A0B7P9G0 21-834)"
